Values of other authors, collected in patent publication US20220133652A1, “A FORMULATION FOR IMPROVING SEIZURE CONTROL” (ZOGENIX INTERNATIONAL LIMITED, priority 2019, published 2022).
Some entries share one result that the patent states for a list of compounds.

System: early SE
Conditions: intravenous lorazepam or intramuscular midazolam as initial treatment; cited from earlier work

SMILES	Seizures controlled
O=C1Nc2ccc(Cl)cc2C(c2ccccc2Cl)=NC1O (centres unmarked) [lorazepam]	63-73%
Cc1ncc2n1-c1ccc(Cl)cc1C(c1ccccc1F)=NC2 [midazolam]	63-73%
